Laboratory results from PubChem BioAssay (NCATS).
The inconclusive results got no clear call from the source; some entries with a clear call stand among them for comparison. A potency beside an inconclusive call is a rough fit, not a confirmed value. Calls of active or inactive are those of the source. Calls follow the shape of the dose curve; as a rule, active = well fitted inhibition curve with a large enough effect; inconclusive = small, poorly fitted or top-dose-only effect; inactive = no such curve, though single readings can be large or run the other way.

Amino acid sequences for entries named in this document (tags omitted). A change or cut given only in a name is not applied to a line headed by its entry.
UniProt Q8WZA2: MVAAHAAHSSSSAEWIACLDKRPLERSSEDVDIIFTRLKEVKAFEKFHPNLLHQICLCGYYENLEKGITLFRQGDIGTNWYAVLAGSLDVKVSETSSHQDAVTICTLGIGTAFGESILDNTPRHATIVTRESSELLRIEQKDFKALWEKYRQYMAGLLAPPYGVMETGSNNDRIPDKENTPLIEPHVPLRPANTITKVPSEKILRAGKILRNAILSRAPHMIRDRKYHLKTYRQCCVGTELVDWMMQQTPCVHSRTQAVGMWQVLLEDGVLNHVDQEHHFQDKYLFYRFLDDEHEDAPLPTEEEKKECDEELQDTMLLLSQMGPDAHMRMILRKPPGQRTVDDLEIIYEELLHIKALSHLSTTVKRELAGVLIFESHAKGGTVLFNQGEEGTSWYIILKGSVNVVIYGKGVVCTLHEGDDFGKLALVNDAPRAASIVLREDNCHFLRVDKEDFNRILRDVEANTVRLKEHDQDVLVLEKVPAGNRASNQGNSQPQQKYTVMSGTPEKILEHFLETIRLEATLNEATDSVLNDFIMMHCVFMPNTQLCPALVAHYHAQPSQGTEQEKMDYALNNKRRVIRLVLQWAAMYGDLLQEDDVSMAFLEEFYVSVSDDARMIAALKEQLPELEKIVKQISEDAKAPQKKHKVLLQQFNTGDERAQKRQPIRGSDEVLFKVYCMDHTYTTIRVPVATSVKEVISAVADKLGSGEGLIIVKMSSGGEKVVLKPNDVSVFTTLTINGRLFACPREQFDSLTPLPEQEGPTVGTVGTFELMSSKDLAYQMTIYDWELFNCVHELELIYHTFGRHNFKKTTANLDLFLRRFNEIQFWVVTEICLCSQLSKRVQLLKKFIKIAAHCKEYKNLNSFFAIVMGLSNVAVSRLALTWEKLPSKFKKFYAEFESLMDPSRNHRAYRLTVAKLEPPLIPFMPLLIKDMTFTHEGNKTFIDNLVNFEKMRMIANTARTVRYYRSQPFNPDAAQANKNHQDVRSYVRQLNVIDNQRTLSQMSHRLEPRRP

target: Rap guanine nucleotide exchange factor 4 (Homo sapiens) (UniProt Q8WZA2); assay: Confirmatory qHTS for antagonist of cAMP-regulated guanine nucleotide exchange factor 4 (EPAC2) (AID 1645885); settings: EPAC2 Rap1B-BODIPY-GDP exchange fluorescence, biochemical; activity change, negative = inhibition: at 12.7 µM (top of the series) unless noted; series mostly up to 114 µM; also: nearly all actives have a fitted effect of over 25% in size
% is scaled to controls: 0 for no effect and ±100 for the full control effect; potency is read from the fitted curve at half-maximal effect.

Compound | Potency | activity change, negative = inhibition
CN1c2ccccc2C(C)(C)C12C=Nc1c(cc(N3CCOCC3)c3ccccc13)O2 (stereo unspecified) | inconclusive: 75.7 µM [inhibitor, partial curve, poor fit] | –
CCN1CCN(C2=CC3=CC(=C(C#N)C#N)CCC3CC2)CC1 (stereo unspecified) | active: 67.5 µM | –
Cc1ccc2nc(-c3ccccc3)c(Cc3cccc(Cl)c3)n2c1 | inconclusive: 53.6 µM [inhibitor, partial curve] | –
CN1c2ccsc2/C(=N/Nc2ccccc2)CS1(=O)=O | – | inconclusive: -38.4% [inhibitor] [at 114 µM]
Cc1cc(N(C)C)c(C)cc1/C=C/c1ccnc2ccccc12 | inactive | –
CC(C)CC(=NNC(=O)c1ccncc1)c1cc(Cl)ccc1O | inconclusive: 30.1 µM [inhibitor, partial curve, poor fit] | –
O=C1c2ccccc2S(=O)(=O)c2cc(N3CCC(C(=O)N4CCCCC4)CC3)ccc21 | inconclusive: 84.9 µM [inhibitor, single point] | –
COC(=O)C1=NN(c2ccc(C)cc2)C2(S1)SC(C(C)=O)=C(C)N2c1ccccc1 (stereo unspecified) | inconclusive: 0.239 µM [inhibitor, full curve, poor fit] | –
CCCC1C2CN(C(C)C)CC=C2C(C#N)=C(N)C1(C#N)C#N (stereo unspecified) | active: 33.8 µM | –
O=C(Cc1ccccc1)Nn1c(O)c(/C=C2\C=Nc3ccccc32)sc1=S | inconclusive: 1.2 µM [inhibitor, partial curve, poor fit] | –
CC(C)(C)C1COc2ccccc2N1C(=O)c1ccccc1Cl (stereo unspecified) | active: 30.1 µM | –
CCOc1cc(/C=C2\CCCc3c2nc2ccccc2c3C(=O)O)ccc1OC | inactive | –
O=c1oc2cc(O)ccc2cc1-c1nc2ccccc2o1 | active: 84.9 µM | –
COC(=O)c1sc(S(=O)(=O)N2CCCCC2C)c(C(=O)OC)c1C (stereo unspecified) | active: 53.6 µM | –
O=C(NCc1ccc(OC(F)(F)F)cc1)c1cccc2c1C(=O)c1ccc(N3CCCC3)cc1S2(=O)=O | inactive | –
CCOC(=O)/C(C#N)=C\c1ccc(N2CCN(C/C=C/c3ccccc3)CC2)cc1 | inconclusive: 7.57 µM [inhibitor, full curve, poor fit] | –
COc1ccc(CN2C(=O)c3cccnc3C2O)cc1 (stereo unspecified) | inconclusive: 67.5 µM [inhibitor, partial curve, poor fit] | –
COc1ccc(NC(=O)c2csc3c2CCCCC3)c(OC)c1 | inconclusive: 95.3 µM [inhibitor, single point] | –
CN(C)/C=C/c1onc(-c2c(Cl)cccc2Cl)c1C#N | inconclusive: 23.9 µM [inhibitor, full curve] | –
CCOC(=O)c1c(CSc2ccccc2)n(C)c2cc(Br)c(OCC(O)CNC(CO)(CO)CO)cc12 (stereo unspecified) | active: 26.9 µM | –
Oc1ccc(Br)cc1CNc1cccc2cccnc12 | active: 33.8 µM | –
CCN1C(=O)c2cccc3c(N)ccc(c23)C1=O | active: 75.7 µM | –
CC(NC1=CC(=O)c2cccnc2C1=O)C(O)c1ccccc1 (stereo unspecified) | inactive | –
CCOC(=O)[C@H]1[C@H]2COc3ccc(C)cc3[C@@H]2N2C(=O)c3ccc(C)cc3NC(=O)[C@@]12C | inconclusive: 95.3 µM [inhibitor, single point] | –
N#C/C(=C\c1ccc(N2CCOCC2)o1)c1nc2ccccc2[nH]1 | inactive | –
Cc1ccc2oc(=O)c(/C=C(\O)c3ccco3)nc2c1 | inconclusive: 2.39 µM [inhibitor, full curve, poor fit] | –

Gathered by group, the compounds so far containing a furan ring, fused or not (two)
Compound | Potency | activity change, negative = inhibition
N#C/C(=C\c1ccc(N2CCOCC2)o1)c1nc2ccccc2[nH]1 | inactive | –
Cc1ccc2oc(=O)c(/C=C(\O)c3ccco3)nc2c1 | inconclusive: 2.39 µM [inhibitor, full curve, poor fit] | –
